Earlier results as cited in EP3865125A1, “PHARMACEUTICAL COMPOSITION COMPRISING ELIGLUSTAT” (Kashiv Biosciences, LLC, priority 2020, dated 2021).
At least one read-out could not be matched to a standard name with certainty.

Key:
[1] = predicted, CHMP assessment report

CCCCCCCC(=O)N[C@H](CN1CCCC1)[C@H](O)c1ccc2c(c1)OCCO2 [Eliglustat]
absolute bioavailability, CYP2D6 PMs compared with CYP2D6 EMs [1]: approximately 20 times
permeability: high permeability
